Substitutions are numbered along the chain they refer to. The list shows a part of the results. For some assays here: At the low end of the ranking the order means little.

What all share (conditions): yeast three-hybrid, YBZ-1, SC-Leu-His + 0.5 mM 3-AT, 4 days
Test [1] concerns the target T1, PUM1 PUF domain R3-APL C935A + R936P + Q939L (UniProt Q14671).
T1 sequence: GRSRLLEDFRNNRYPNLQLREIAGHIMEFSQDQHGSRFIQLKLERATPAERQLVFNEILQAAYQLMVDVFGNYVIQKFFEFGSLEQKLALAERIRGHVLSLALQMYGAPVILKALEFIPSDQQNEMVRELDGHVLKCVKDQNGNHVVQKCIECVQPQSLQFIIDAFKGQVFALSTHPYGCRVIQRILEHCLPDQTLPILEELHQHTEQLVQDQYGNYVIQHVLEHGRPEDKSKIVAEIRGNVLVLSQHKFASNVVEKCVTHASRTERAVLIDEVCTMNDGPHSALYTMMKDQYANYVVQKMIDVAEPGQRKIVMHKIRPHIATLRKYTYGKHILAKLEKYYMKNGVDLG

The target of test [2] is T2, PUM1 PUF domain R3-ARH C935A + Q939H (UniProt Q14671).
T2 sequence: T1 sequence with P109R, L112H

The target of test [3] is T3, PUM1 PUF domain R3-DYG C935D + R936Y + Q939G (UniProt Q14671).
T3 sequence: T1 sequence with A108D, P109Y, L112G

Test [4] addresses T4, PUM1 PUF domain R3-DYS C935D + R936Y + Q939S (UniProt Q14671).
T4 sequence: T1 sequence with A108D, P109Y, L112S

Test [5] addresses T5, PUM1 PUF domain R3-DYV C935D + R936Y + Q939V (Homo sapiens) (UniProt Q14671).
T5 sequence: T1 sequence with A108D, P109Y, L112V

For test [6], the target named is T6, PUM1 PUF domain R3-GPW C935G + R936P + Q939W (UniProt Q14671).
T6 sequence: T1 sequence with A108G, L112W

The target in test [7] is T7, PUM1 PUF domain R3-PWW C935P + R936W + Q939W (UniProt Q14671).
T7 sequence: T1 sequence with A108P, P109W, L112W

Test [8] concerns the target T8, PUM1 PUF domain R3-RAP C935R + R936A + Q939P (UniProt Q14671).
T8 sequence: T1 sequence with A108R, P109A, L112P

Test [9] addresses T9, PUM1 PUF domain R3-RRK C935R + Q939K (UniProt Q14671).
T9 sequence: T1 sequence with A108R, P109R, L112K

The target of test [10] is T10, PUM1 PUF domain R3-SQQ C935S + R936Q (UniProt Q14671).
T10 sequence: T1 sequence with A108S, P109Q, L112Q

Test [11] has as its target T11, PUM1 PUF domain R3-TRL C935T + Q939L (UniProt Q14671).
T11 sequence: T1 sequence with A108T, P109R

In test [12] the target is T12, PUM1 PUF domain R3-TRW C935T + Q939W (UniProt Q14671).
T12 sequence: T1 sequence with A108T, P109R, L112W

Test [13] deals with T13, PUM1 PUF domain R3-TTR C935T + R936T + Q939R (UniProt Q14671).
T13 sequence: T1 sequence with A108T, P109T, L112R

The target of test [14] is T14, PUM1 PUF domain R3-VCI C935V + R936C + Q939I (UniProt Q14671).
T14 sequence: T1 sequence with A108V, P109C, L112I

Test [15] concerns the target T15, PUM1 PUF domain R3-VFF C935V + R936F + Q939F (UniProt Q14671).
T15 sequence: T1 sequence with A108V, P109F, L112F

Test [16] concerns the target T16, PUM1 PUF domain R3-VFW C935V + R936F + Q939W (UniProt Q14671).
T16 sequence: T1 sequence with A108V, P109F, L112W

Test [17] concerns the target T17, PUM1 PUF domain R3-VFY C935V + R936F + Q939Y (UniProt Q14671).
T17 sequence: T1 sequence with A108V, P109F, L112Y

For test [18], the target named is T18, PUM1 PUF domain R3-VNV C935V + R936N + Q939V (UniProt Q14671).
T18 sequence: T1 sequence with A108V, P109N, L112V

Test [19] addresses T19, PUM1 PUF domain R3-VYF C935V + R936Y + Q939F (UniProt Q14671).
T19 sequence: T1 sequence with A108V, P109Y, L112F

The target of test [20] is T20, PUM1 PUF domain R3-VYP C935V + R936Y + Q939P (UniProt Q14671).
T20 sequence: T1 sequence with A108V, P109Y, L112P

For the sequence “GGCUAGAACUAGUGGAUCCCCCGGCGCCCGGCGGCUCGAGCCCGGGUAAGUGUAAGUAGUCUGCAUGCCGCCGGGCGCCAUGCCUGCAGGUCGACUCUAGAAAACAUG”, the binding signal (log2 enrichment (interaction score)) in [1] was < -8.76; in test [2] it was -5.17; in [3], -4.99; in test [4] it was -5.83; in [5], 1.29; in test [6], < -9.37. Also, the binding signal (log2 enrichment (interaction score)) in [7] was < -6.86; in [8], < -6.87; in test [9], < -6.88; in test [10], < -7.22; in test [11] it was -3.95; in test [12], -4.69. The binding signal (log2 enrichment (interaction score)) in [13] was -4.35; in [14], < -8.87; in [15], < -8.66; in [16] it was -5.9; in [17], < -7.58; in [18], -6.44. The figures for the binding signal (log2 enrichment (interaction score)) in [19] and in test [20] were -5.88 and < -7.55, respectively.
